Results taken from the supplement of paper PMC12823440, “Inhibitors supercharge kinase turnover through native proteolytic circuits” (Nature, 2025).
Counter-ions that a name gives are not always drawn. This is one part of the list. The calls rarely recur for the same compound in another form.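 Kinases, fused to nanoluciferase, were expressed in K562 cells; luminescence was measured every 4 h from 2 to 18 h as percent of control (DMSO = 100%, positive control = 0%). A time point is decreased if signal falls significantly (2 sigma). Hits were called by the authors by a rule that is not shown; the count of time points alone does not decide it.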

Protein sequences, listed by entry. Tags and fused reporters are not part of them. Lines headed by an entry give the natural chain unless they say otherwise; changes in a name come on top.
UniProt Q6PHR2: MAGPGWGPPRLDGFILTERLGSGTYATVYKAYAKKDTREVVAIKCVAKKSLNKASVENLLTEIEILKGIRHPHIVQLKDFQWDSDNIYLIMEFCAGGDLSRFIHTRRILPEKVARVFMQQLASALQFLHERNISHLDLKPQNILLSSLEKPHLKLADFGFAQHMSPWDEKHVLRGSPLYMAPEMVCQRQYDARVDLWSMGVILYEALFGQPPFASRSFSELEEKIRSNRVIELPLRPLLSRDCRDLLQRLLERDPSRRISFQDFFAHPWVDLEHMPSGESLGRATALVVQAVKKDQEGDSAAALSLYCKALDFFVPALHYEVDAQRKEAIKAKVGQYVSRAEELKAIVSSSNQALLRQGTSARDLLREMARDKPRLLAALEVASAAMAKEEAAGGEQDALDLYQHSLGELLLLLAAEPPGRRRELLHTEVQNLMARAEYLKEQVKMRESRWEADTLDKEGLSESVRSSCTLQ
UniProt P07947, whole entry, looked up: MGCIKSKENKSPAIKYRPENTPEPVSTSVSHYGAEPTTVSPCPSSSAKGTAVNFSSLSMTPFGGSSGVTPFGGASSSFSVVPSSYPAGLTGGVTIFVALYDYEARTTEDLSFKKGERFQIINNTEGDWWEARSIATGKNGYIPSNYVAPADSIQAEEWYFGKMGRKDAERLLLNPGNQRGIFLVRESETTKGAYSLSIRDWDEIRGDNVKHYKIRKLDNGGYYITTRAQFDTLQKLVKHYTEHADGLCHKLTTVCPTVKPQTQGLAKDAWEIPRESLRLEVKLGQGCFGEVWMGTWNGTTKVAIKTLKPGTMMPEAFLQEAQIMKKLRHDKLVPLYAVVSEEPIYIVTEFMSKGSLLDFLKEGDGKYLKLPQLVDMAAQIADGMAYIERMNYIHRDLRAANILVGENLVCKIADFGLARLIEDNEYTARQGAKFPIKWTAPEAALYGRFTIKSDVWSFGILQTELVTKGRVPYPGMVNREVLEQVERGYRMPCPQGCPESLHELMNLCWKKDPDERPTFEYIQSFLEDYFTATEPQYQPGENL

molecular target: ULK3 (UniProt Q6PHR2); test: kinase-Nluc reporter destabilization hit call (1 = scored as downregulated) (binary); higher = compound decreases kinase abundance; conditions: K562; 2-18 h

kinase-Nluc reporter destabilization hit call, inactive:
O=C1/C(=C\c2ccc(Cl)cc2)C=C(c2ccccc2)N1c1ccc(O)cc1 (2.5 µM) 0
C[C@@H]1CCNC(=O)c2cc3ccc(C(=O)Nc4nc5ccccc5n4CCCN(C)C)cc3n21 (10 µM) 0
COc1c(Nc2cc(C)[nH]n2)nc(Sc2ccc(S(=O)(=O)Cc3cccc([N+](=O)[O-])c3F)cc2F)nc1N1CCCCC1 [Centrinone-B] (2.5 µM) 0
COc1ccc(/C=C/C(=O)C2(C(=O)/C=C/c3ccc(OC)c(OC)c3)CCCCC2)cc1OC (2.5 µM) 0
CN(C)c1nc2c(Br)c(Br)c(Br)c(Br)c2[nH]1 (10 µM) 0
O=C(Nc1nc(=O)n(Cc2ccc(Cl)cc2)s1)c1ccc(Cl)cc1 (10 µM) 0
Nc1n[nH]c2nc(-c3ccc(NS(=O)(=O)c4cc(Cl)ccc4F)cc3)cnc12 (10 µM) 0

molecular target: YES1 (UniProt P07947); test: as above; conditions: K562; 2-18 h

kinase-Nluc reporter destabilization hit call, inactive:
CN1CC[C@@H](c2c(O)cc(O)c3c(=O)cc(-c4ccc(C(F)(F)F)cc4Cl)oc23)[C@@H]1CO [Voruciclib (hydrochloride)] (10 µM) 0
O=c1cc(-c2cccc3c2Sc2ccccc2S3)oc(N2CCOCC2)c1 (10 µM) 0
O=[N+]([O-])c1ccc(Nc2nc(N3CCOCC3)nc(N3CCOCC3)n2)cc1 (10 µM) 0
c1ccc(-c2nc(=NCCN3CCOCC3)sn2-c2ccccc2)cc1 [VP3.15 (dihydrobromide)] (10 µM) 0
Nc1nc(N)c2nc(-c3cccc(O)c3)cnc2n1 (10 µM) 0
Nc1ncnc2c1c(-c1ccc(Oc3ccccc3)cc1)nn2C1CCN(CCOCCOCCOc2ccc3c(c2)CN(C2CCC(=O)NC2=O)C3=O)CC1 (stereo not given) (2.5 µM) 0
C=CC(=O)N1C[C@H](COc2nc(Nc3cnn(C)c3)nc3[nH]cc(Cl)c23)[C@@H](OC)C1 (2.5 µM) 0
Cc1nn(C)c2c1C(c1ccc(C(F)(F)F)cc1)C(C#N)=C(N)O2 (stereo not given) (10 µM) 0
O=C(NC1CCOCC1)c1ccc(-c2cc(-c3c[nH]nc3-c3ccccn3)ccn2)cc1 (10 µM) 0
CC/C(=N\NC(=O)c1ccnc(NCCCN2CCOCC2)c1)c1ccc(Cl)cc1O (2.5 µM) 0
COc1cc(N2CCOCC2)ccc1Nc1ncc(Cl)c(Nc2ccccc2NS(C)(=O)=O)n1 (2.5 µM) 0
Cn1cnc([N+](=O)[O-])c1C[N+](C)(C)C/C=C/C(=O)Nc1cc2c(Nc3ccc(Cl)c(Br)c3)ncnc2cn1 [Tarloxotinib (bromide)] (10 µM) 0
O=C(Nc1cccc(C(F)(F)F)c1)c1cccc2cc(Oc3cc(CO)ncn3)ccc12 (10 µM) 0
Oc1ccc(/C=C/c2cc(O)cc(O)c2)cc1 [Resveratrol] (10 µM) 0
O=c1[nH]c(C2CCCN2)nc2c1oc1ccc(Cl)cc12 (stereo not given) [XL413 (hydrochloride)] (10 µM) 0
CN(c1ccc(NC(=O)Nc2ccc(OC(F)(F)F)cc2)cc1)c1ccnc(Nc2cccc(S(N)(=O)=O)c2)n1 (2.5 µM) 0
C=C[C@@](C)(/C=C/c1ccc(O)cc1)CCC=C(C)C [Bakuchiol] (10 µM) 0
COc1cc2ncnc(-n3nc(-c4ccccn4)nc3N)c2cc1OC (10 µM) 0
CNc1nc(Nc2ccc(C(=O)N3CCOCC3)cc2OC)ncc1Cl (2.5 µM) 0
CC(C)S(=O)(=O)c1ccc2nccc(Nc3ccc4scnc4c3)c2c1 (10 µM) 0
CC(C)(O)[C@H]1CC[C@H](Nc2ccc3ncc(-c4cccc(C(F)(F)F)c4)n3n2)CC1 (10 µM) 0
CCN(CC)c1ccc2cc(-c3nc4cc(C)ccc4o3)c(=O)oc2c1 (10 µM) 0
CN(C)S(=O)(=O)c1ccc2c(c1)/C(=C/c1cc3c([nH]1)CCCC3)C(=O)N2 (2.5 µM) 0
C=CC(=O)Nc1cc(Nc2nccc(-n3cc(CN(C)C)c(-c4ccccc4)n3)n2)c(OC)cc1N1CCOCC1 [Lazertinib] (10 µM) 0
Cc1ccc2c(Nc3cccc(Cl)c3F)nccc2c1NC(=O)c1csc2c(N)ncnc12 [Belvarafenib] (10 µM) 0
Oc1cc(O)c2c(c1)OC1(c3ccc(O)c(O)c3)Oc3cc(O)c4c(c3C2C1O)OC(c1ccc(O)c(O)c1)C(O)C4 (stereo not given) [Procyanidin A1] (10 µM) 0
c1ccc(-c2nc3c(c(-n4ccc5cnccc54)n2)CCC3)nc1 (10 µM) 0
Cc1cc(C)nc(NS(=O)(=O)c2ccc(NC(=S)NC(=O)COc3ccc(Br)cc3Cl)cc2)n1 (2.5 µM) 0
Cc1ccc(NC(=O)c2ccc(CN(CCN(C)C)C(=O)c3cccnc3)cc2)cc1Nc1nccc(-c2cccnc2)n1 [PDGFRα kinase inhibitor 1] (10 µM) 0
C[C@H](Nc1ncnc2[nH]cnc12)c1cc2ccc(F)cc2nc1-c1ccccn1 (10 µM) 0
CN(C)CCC=C1c2ccccc2CCc2ccccc21 [Amitriptyline (hydrochloride)] (2.5 µM) 0
O=C1/C(=C\c2ccc(Cl)cc2)C=C(c2ccccc2)N1c1ccc(O)cc1 (2.5 µM) 0
C[C@@H]1CCNC(=O)c2cc3ccc(C(=O)Nc4nc5ccccc5n4CCCN(C)C)cc3n21 (10 µM) 0
COc1c(Nc2cc(C)[nH]n2)nc(Sc2ccc(S(=O)(=O)Cc3cccc([N+](=O)[O-])c3F)cc2F)nc1N1CCCCC1 [Centrinone-B] (2.5 µM) 0
COc1ccc(/C=C/C(=O)C2(C(=O)/C=C/c3ccc(OC)c(OC)c3)CCCCC2)cc1OC (2.5 µM) 0
CN(C)c1nc2c(Br)c(Br)c(Br)c(Br)c2[nH]1 (10 µM) 0
O=C(Nc1nc(=O)n(Cc2ccc(Cl)cc2)s1)c1ccc(Cl)cc1 (10 µM) 0
Nc1n[nH]c2nc(-c3ccc(NS(=O)(=O)c4cc(Cl)ccc4F)cc3)cnc12 (10 µM) 0
